The values that follow come from PMC8278074.

Amino acid sequences for entries named in this document (tags omitted).
UniProt P46937: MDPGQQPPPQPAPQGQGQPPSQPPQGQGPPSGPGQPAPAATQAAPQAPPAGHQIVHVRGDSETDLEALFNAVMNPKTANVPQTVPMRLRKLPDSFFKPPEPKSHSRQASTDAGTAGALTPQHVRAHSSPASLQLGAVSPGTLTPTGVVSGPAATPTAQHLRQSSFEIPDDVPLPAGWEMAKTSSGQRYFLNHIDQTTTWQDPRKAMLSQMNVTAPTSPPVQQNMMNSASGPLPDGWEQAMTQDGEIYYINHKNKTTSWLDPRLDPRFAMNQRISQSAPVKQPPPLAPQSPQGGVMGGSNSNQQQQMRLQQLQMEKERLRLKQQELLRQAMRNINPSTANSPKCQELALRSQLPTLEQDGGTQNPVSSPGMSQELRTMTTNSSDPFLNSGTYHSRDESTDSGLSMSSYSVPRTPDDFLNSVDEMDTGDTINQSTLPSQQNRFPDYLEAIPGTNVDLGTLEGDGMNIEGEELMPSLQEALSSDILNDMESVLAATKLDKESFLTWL

Assay [1] has as its target T1, 3 × Flag‐TAK1 (TGF‐β‐activated kinase 1) (UniProt O43318).
T1 sequence: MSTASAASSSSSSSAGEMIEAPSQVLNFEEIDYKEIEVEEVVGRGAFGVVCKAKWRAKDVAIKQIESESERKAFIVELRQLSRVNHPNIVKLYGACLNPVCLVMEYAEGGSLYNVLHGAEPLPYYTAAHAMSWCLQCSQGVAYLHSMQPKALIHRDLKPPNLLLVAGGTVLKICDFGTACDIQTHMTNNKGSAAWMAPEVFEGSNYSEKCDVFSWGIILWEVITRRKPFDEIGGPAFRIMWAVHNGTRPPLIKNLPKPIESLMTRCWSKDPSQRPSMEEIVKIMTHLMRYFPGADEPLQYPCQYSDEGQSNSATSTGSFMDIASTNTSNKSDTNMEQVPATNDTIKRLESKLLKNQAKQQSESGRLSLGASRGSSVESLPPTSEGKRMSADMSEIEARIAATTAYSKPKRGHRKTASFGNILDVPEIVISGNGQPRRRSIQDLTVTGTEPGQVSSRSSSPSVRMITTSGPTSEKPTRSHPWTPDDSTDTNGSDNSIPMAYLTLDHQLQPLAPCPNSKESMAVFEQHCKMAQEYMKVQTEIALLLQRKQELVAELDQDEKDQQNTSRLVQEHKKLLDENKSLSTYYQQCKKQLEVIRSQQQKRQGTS
Kind of assay: condition: only cells treated with the TAK1 kinase inhibitor 5Z-7-oxozeaenol; co-IP; as a2, cells treated with the TAK1 kinase inhibitor 5Z-7-oxozeaenol.

Assay [2] has as its target T2, TAK1^E29A (UniProt O43318).
T2 sequence: T1 sequence with E29A
Put plainly: co-IP; lysate (weak lysis buffer) of MKN45-derived gastric cancer spheroids; antibody 5 h at 4°C, protein A/G plus agarose, Western blot; methods name a 3×Flag antibody, the legend anti-TAK1 antibodies.

Assay [3] has as its target T1, 3 × Flag‐TAK1 (TGF‐β‐activated kinase 1). The assay is described as above.

Substitutions are numbered along the chain they refer to. Results are given in words; binding and its absence hold for the method and conditions named. Binding seen in cells or lysates may run through a third protein. Some results given as binding are weak or reduced against the parent protein; the word gives no strength. For part of these data: Sequences can lack the tags named with a protein.

In the case of “yes‐associated protein (YAP) (from UniProt P46937 1-504)”, the binding result was “no binding” in assay [1], “no binding” in assay [2] and “binds” in assay [3].
